Results from one PubChem assay

From PubChem BioAssay record AID1159506 (NCATS, 2015).

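Genome-wide siRNA knockdown in TC32 Ewing sarcoma cells, comparing luciferase light from an NR0B1-promoter reporter with a CMV-promoter reporter 48 hours after transfection. Each siRNA was applied at 20 nM. A z-score of the log NR0B1-over-CMV signal, less the median of siRNAs with the same seed; more negative means a stronger specific loss of the NR0B1 reporter.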

This is part of the screen; most of the strongest results are not listed here. Sequences are the guide (antisense) strand, without overhang.

| Sequence | gene | seed-corrected z-score |
|---|---|---|
| `AUAGCUUCCACUCUCAACC` | CCDC186 | -0.9204 |
| `UGCUUUCCAACUGCACUUC` | NAA40 | -1.072 |
| `AUAGGGACACCUAAAAGGC` | TWISTNB | -1.476 |
| `AAAGUUGAUAAAUCUCUGG` | NPL | 0.5203 |
| `UUCCGCACAUGUUACACCC` | ZNF217 | -0.04328 |
| `UAGCGAGUAUUUUCCAGCC` | SRL | 0.02844 |
| `UUCAAUAAAUCGAACAUAG` | ADSS | 0.05309 |
| `UAUGGAACUACGAAAUUCA` | CNOT8 | 0.07002 |
| `UAACGUAACUCAACAUAGC` | NDUFS3 | 0.8853 |
| `AUAAGGACAAUCAUCUUCA` | VAMP8 | 1.622 |
| `UGUCAUUGGAAUCUAAUAC` | PCDHB9 | 0.1889 |
| `UAUAGUAGUCGAGUGCUCC` | RBM4B | -0.5871 |
| `UUCUCAUCAACCUGAAGUC` | SLC25A17 | 0.2132 |
| `UGAAGCGAUAGUUUGAUUG` | TRIM4 | -0.08305 |
| `UUCUGAAUCCACCAAAACC` | VSIG10 | -0.3654 |
| `AUGCUCGUAGUAACUCUCC` | ITPRIPL2 | -0.7763 |
| `UCCCGGUCACUUAUCCUGU` | CCK | 1.114 |
| `UAGCCUCUCAUUGUGCUGC` | ACTN1 | 0.2056 |
| `UUUCACGACUUUCUCAUCC` | TSHZ2 | -0.07565 |
| `UCAUCUUCUGGUGAUUUCU` | SPX | 0.8196 |
| `UAUGCAGCGAUAGCAAGGG` | MOCS3 | -0.6637 |
| `UUUGUCGCAAUGCUUCUCC` | CCDC171 | -0.4225 |
| `UAUGUAGGCAUAACCCUUG` | PABPN1L | -0.1287 |
| `UAGUGGAGCAGUGUCAUGU` | CLIP3 | 0.5714 |
| `UGUCAUUCCCUUGAAAAUC` | KLRC1 | 0.09858 |
| `UAGUUUGCCCAGUAAAUCC` | ZMYND12 | -0.0418 |
| `UCAGGAAGUACUGUAGUAG` | RNF39 | 0.3507 |
| `UCUGUGACGAUCUUCUUCG` | MAGEH1 | -0.05594 |
| `UUAUAGUGCAAAUCAUCUC` | ZNF45 | -0.174 |
| `UAUCGAACAAGAUUAGGAG` | NDUFS1 | 0.4897 |
| `AUUAUAACCACCAAAGAUG` | KLHDC3 | 0.2851 |
| `UGAAGGACCGUGCAGACAG` | PMEPA1 | 1.132 |
| `UAGGGAAACAAGCAUAUCA` | MYL8P | -1.316 |
| `UUUCUGUAGAAAGCCUCGA` | RAB42 | 0.6872 |
| `AUACGGAGUAGAAAUGGGA` | FAM73B | -0.1401 |
| `UGUCUAAACAAAUCCAUCC` | NR2F2-AS1 | -0.5956 |
| `UAGGCAGAUGCGAUGCACU` | RAB36 | 0.03327 |
| `UACCAUACUGUUGAGGCUG` | TFG | 0.3218 |
| `UACCUUGCGAAUUAGAAGG` | REL | -1.018 |
| `UUCAUAGUCACUGGAGUCC` | LAX1 | -0.1483 |
| `UUUGUGAUAGAUGCACAGG` | ZNRF1 | 0.4766 |
| `UUCACGCUGAGGGAUUUGC` | NAV2 | -0.3559 |
| `UUUACAGCAACCACCAUCU` | LINC00636 | 0.329 |
| `UAACUUUAACCUCUCCGUC` | WWC1 | 1.987 |
| `UUCCGUUCCCUGUCAAGUC` | MICA | -0.12 |
| `UAGGUAUACAGAAUUGCAG` | CPSF7 | 0.3541 |
| `UCUCGUAAAUCUUCAAAGG` | NEDD4L | 0.5977 |
| `AUAGUUCCAUGAUCGGUAG` | GJA10 | -0.4609 |
| `UCGAAGUCAAAGUAGUUCU` | CLUH | 0.8051 |
| `UCUCCGUCUACAUACGUGC` | SETD7 | 0.2116 |
| `AUAUCUAUAAAUUUUCGCG` | E2F6P4 | -1.091 |
| `UAAGGCAUCUCGUUGUAGG` | SCPEP1 | 0.08485 |
| `UACCUUACGGUGGAAGUCC` | RASD2 | -0.352 |
| `UUUACUGUAGUAACUCUUC` | MYT1 | 0.06529 |
| `AGUUCUUUAAGAAUGUUCG` | AP3M2 | -0.1768 |
| `UACAUGACAACAUCUCAUC` | LRRC37A17P | 0.503 |
| `UUGCCCUUGACAGAUUUGG` | ATRAID | -0.211 |

4 of the entries, repeated:

| Sequence | gene | seed-corrected z-score |
|---|---|---|
| `AUAUCUAUAAAUUUUCGCG` | E2F6P4 | -1.091 |
| `UUUACAGCAACCACCAUCU` | LINC00636 | 0.329 |
| `UCAUCUUCUGGUGAUUUCU` | SPX | 0.8196 |
| `UAUGUAGGCAUAACCCUUG` | PABPN1L | -0.1287 |